# Experimental data from paper doi:10.1101/2023.09.17.558134 (bioRxiv, 2023).
# Sequences of proteins named here, by UniProt entry; tags and fusion partners are left off.
# UniProt P0AE60: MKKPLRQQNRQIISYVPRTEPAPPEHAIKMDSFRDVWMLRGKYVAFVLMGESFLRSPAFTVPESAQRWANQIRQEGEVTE
# B1: stringent starvation protein A (SspA), endogenous (protein, UniProt P0ACA3 1-212)
# chain: MAVAANKRSVMTLFSGPTDIYSHQVRIVLAEKGVSFEIEHVEKDNPPQDLIDLNPNQSVPTLVDRELTLWESRIIMEYLDERFPHPPLMPVYPVARGESRLYMHRIEKDWYTLMNTIINGSASEADAARKQLREELLAIAPVFGQKPYFLSDEFSLVDCYLAPLLWRLPQLGIEFSGPGAKELKGYMTRVFERDSFLASLTEAEREMRLGRS
# Target: CedA, chromosomally 3×FLAG-tagged (E. coli) (UniProt P0AE60)
# Assay: affinity purification with mass spectrometry
binder,measurement,value
B1,binding,binds

# Results are given in words; binding and its absence hold for the method and conditions named. Binding seen in cells or lysates may run through a third protein. These calls come from enrichment with a bait or labelling near it, and not all partners need be listed.
